Reference: patent US20240025965A1 (UNIVERSITEIT TWENTE, published 2024)
No constants are given. Whether binding was seen depends on the method and setting. Some results given as binding are weak or reduced against the parent protein; the word gives no strength.

Key:
[1] = molecular target: T1, ITGA11 on human stellate cells (LX2 hepatic stellate cells; primary pancreatic stellate cells) (human) (UniProt Q9UKX5); test: fluorescence microscopy on LX2 cells
T1 sequence (looked up): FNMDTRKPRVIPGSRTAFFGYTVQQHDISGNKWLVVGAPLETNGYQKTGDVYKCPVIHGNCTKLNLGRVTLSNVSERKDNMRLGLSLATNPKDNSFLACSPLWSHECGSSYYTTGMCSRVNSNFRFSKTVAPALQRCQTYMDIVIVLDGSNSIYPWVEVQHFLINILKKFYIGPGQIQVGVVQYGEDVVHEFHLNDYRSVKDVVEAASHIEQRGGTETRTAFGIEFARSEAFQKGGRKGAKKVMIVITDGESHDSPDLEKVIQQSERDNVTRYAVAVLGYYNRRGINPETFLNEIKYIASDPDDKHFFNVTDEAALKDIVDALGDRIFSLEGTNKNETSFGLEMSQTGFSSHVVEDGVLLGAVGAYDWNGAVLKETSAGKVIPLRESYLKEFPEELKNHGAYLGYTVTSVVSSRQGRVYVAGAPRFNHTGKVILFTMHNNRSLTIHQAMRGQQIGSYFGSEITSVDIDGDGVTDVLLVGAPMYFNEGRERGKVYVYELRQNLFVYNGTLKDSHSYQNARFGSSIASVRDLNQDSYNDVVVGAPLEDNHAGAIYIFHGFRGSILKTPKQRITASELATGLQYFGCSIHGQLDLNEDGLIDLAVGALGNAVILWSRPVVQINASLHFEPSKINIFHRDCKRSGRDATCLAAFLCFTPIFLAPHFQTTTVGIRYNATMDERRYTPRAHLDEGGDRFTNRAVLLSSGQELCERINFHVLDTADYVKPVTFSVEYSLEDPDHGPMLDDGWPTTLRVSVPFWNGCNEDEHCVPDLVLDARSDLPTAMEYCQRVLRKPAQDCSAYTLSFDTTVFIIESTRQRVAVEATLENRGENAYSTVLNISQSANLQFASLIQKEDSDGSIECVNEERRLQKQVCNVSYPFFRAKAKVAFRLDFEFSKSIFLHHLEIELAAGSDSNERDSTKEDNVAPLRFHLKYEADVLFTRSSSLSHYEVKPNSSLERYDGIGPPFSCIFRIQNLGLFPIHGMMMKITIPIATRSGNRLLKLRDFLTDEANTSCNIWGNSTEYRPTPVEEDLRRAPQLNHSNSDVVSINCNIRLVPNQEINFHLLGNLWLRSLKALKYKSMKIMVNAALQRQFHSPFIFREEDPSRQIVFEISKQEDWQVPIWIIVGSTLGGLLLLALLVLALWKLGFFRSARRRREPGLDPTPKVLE

[2] = molecular target: T1, ITGA11 on human stellate cells (LX2 hepatic stellate cells; primary pancreatic stellate cells) (human); test: flow cytometry on primary human pancreatic stellate cells
rhIntegrin α11β1 [3] = molecular target: T2, rhIntegrin α11β1 (human, UniProt Q9UKX5 23-1141; P05556 21-728, limits assumed); test: peptide microarray incubated with α11β1, anti-ITGA11 detection
T2 construct: Bought from R&D Systems; also called α11β1 receptor; ITGA11 receptor

[4] = molecular target: T1, ITGA11 on human stellate cells (LX2 hepatic stellate cells; primary pancreatic stellate cells) (human); test: fluorescence microscopy on LX2 cells with and without ITGA11 knockdown
[5] = molecular target: T1, ITGA11 on human stellate cells (LX2 hepatic stellate cells; primary pancreatic stellate cells) (human); test: fluorescence microscopy on LX2 hepatic stellate cells, 20 µM FITC-peptide
[6] = molecular target: T1, ITGA11 on human stellate cells (LX2 hepatic stellate cells; primary pancreatic stellate cells) (human); test: fluorescence microscopy on LX2 cells; shRNA knockdown of ITGA11 gave complete inhibition
[7] = molecular target: T1, ITGA11 on human stellate cells (LX2 hepatic stellate cells; primary pancreatic stellate cells) (human); test: flow cytometry of AXI-I-PEG-FITC on suspended primary human pancreatic stellate cells, 1 hour at 4 °C
[8] = molecular target: T1, ITGA11 on human stellate cells (LX2 hepatic stellate cells; primary pancreatic stellate cells) (human); test: fluorescence microscopy of FITC-labelled AXI-I on LX2 cells with and without shRNA knockdown of ITGA11
[9] = molecular target: T1, ITGA11 on human stellate cells (LX2 hepatic stellate cells; primary pancreatic stellate cells) (human); test: fluorescence microscopy of FITC-labelled peptide on LX2 hepatic stellate cells, with DAPI and phalloidin
rhIntegrin α11β1 [10] = molecular target: T2, rhIntegrin α11β1; test: peptide microarray: peptide fixed by its N-terminus through a PEG linker, incubated with α11β1 receptor (10 µg/ml), anti-ITGA11 antibody and fluorescent secondary antibody, signal of the antibodies alone subtracted
Experimental: Peptide microarray was prepared by conjugating peptides at their N-terminal to a glass slide using a PEG linker. […] For the binding studies, the peptide array was blocked with 3% BSA in TBST for 2 hours. Then the array slide was washed 5 times in TB ST and subsequently incubated with the target receptor (α11β1, 10 μg/ml dissolved in PBS) for 1 hour at 37° C. The slides were washed with TBST and then incubated with primary antibody (1 μg/ml) against ITGA11 for 1 hour at 37° C. Then slides were washed and incubated with fluorescent dye labeled secondary antibodies for 30 minutes. The slides were washed with TBST and water and then dried and scanned with a microarray scanner to detect binding of the peptides. The enlightened spots were analyzed using ImageJ software. To determine the unspecific binding, a peptide array was incubated with only primary and secondary antibodies without the receptor incubation step. Then, the signal of unspecific binding was subtracted from the total binding to calculate specific binding.

Measured: binding

B1: … (peptide)
peptide: SGLTEWLRWFAS
modifications: N-terminus linked to glass slide via PEG linker (microarray)
binds: [1] | [1]; record 2 | [2] | rhIntegrin α11β1 [3] | rhIntegrin α11β1 [3]; record 2 | rhIntegrin α11β1 [3]; record 3 | rhIntegrin α11β1 [3]; record 4 | [4] | [5] | [5]; record 2 | [6] | [7] | [8] | [9] | [9]; record 2 | rhIntegrin α11β1 [10] | rhIntegrin α11β1 [10]; record 2 | rhIntegrin α11β1 [10]; record 3 | rhIntegrin α11β1 [10]; record 4 | rhIntegrin α11β1 [10]; record 5
